No dose or concentration is given here for some results.
Test system: C. autoethanogenum DSM10061
Test: Amino acid consumption and production during heterotrophic growth (HPLC), compared to biomass requirement
Assay type: cell-based, Clostridium autoethanogenum

For `N=C(N)NCCC[C@H](N)C(=O)O` [arginine], which “OD by which the amino acid was completely exhausted” value (12AA medium) is on record?
The value was 0.37.

And the “OD by which the amino acid was depleted” value (14AA and 8AA media)?
Its value is 0.24.
